{"source": "patent US20230114264A1", "about": "“ACTIVATION OF LYTIC GENES IN CANCER CELLS” (priority 2020, published 2023)", "set-up_in_all_cases": "species or system nude mice", "key": {"SNU-719 tumors": {"system": "SNU-719 tumors", "test": "SNU-719 subcutaneous tumor model, EBV reactivation in vivo", "details": "GCV 30 mg/kg I.P., p<0.05"}, "C17 tumors": {"system": "C17 tumors", "test": "C17 subcutaneous tumor model, EBV reactivation in vivo", "details": "Example 11; C17 BZLF1 sgRNA3 cells; DOX diet 20 days, GCV 30 mg/kg I.P.; p<0.05"}, "C666-1 tumors": {"system": "C666-1 tumors", "test": "C666-1 subcutaneous tumor model, EBV reactivation in vivo", "details": "GCV 30 mg/kg I.P., p<0.05"}}, "note": "At least one compound was matched to its structure with a doubt left.", "data": [{"smiles": "C[C@H]1c2cccc(O)c2C(=O)C2=C(O)[C@]3(O)C(=O)C(C(N)=O)=C(O)[C@@H](N(C)C)[C@@H]3[C@@H](O)[C@@H]21", "note": "[DOX, Doxycycline]", "values": [{"measurement": "growth of the tumors", "setting": "SNU-719 tumors; Example 4, SNU719 BZLF1 gRNA (A5) cells, DOX diet (625 mg/kg)", "result": "significantly slows or stops the growth of the tumors"}, {"measurement": "growth of the tumors", "setting": "SNU-719 tumors; Example 11, SNU-719 BZLF1 sgRNA3 cells, DOX diet 20 days", "result": "significantly slows or stops the growth of the tumors"}, {"measurement": "growth of the tumors", "setting": "C17 tumors", "result": "significantly slows or stops the growth of the tumors"}, {"measurement": "growth of the tumors", "setting": "C666-1 tumors; Example 4, C666-1 BZLF1 gRNA (A5) cells, DOX diet (625 mg/kg)", "result": "significantly slows or stops the growth of the tumors"}, {"measurement": "growth of the tumors", "setting": "C666-1 tumors; Example 11, C666-1 BZLF1 sgRNA3 cells, DOX diet 20 days", "result": "significantly slows or stops the growth of the tumors"}]}]}
